Drawing on patent US20200360469A1, this text covers binding for one molecule.

By UniProt entry, the sequences of proteins in these tests, tags left out. Residues count along the entry.
UniProt P15056, residues 2-766: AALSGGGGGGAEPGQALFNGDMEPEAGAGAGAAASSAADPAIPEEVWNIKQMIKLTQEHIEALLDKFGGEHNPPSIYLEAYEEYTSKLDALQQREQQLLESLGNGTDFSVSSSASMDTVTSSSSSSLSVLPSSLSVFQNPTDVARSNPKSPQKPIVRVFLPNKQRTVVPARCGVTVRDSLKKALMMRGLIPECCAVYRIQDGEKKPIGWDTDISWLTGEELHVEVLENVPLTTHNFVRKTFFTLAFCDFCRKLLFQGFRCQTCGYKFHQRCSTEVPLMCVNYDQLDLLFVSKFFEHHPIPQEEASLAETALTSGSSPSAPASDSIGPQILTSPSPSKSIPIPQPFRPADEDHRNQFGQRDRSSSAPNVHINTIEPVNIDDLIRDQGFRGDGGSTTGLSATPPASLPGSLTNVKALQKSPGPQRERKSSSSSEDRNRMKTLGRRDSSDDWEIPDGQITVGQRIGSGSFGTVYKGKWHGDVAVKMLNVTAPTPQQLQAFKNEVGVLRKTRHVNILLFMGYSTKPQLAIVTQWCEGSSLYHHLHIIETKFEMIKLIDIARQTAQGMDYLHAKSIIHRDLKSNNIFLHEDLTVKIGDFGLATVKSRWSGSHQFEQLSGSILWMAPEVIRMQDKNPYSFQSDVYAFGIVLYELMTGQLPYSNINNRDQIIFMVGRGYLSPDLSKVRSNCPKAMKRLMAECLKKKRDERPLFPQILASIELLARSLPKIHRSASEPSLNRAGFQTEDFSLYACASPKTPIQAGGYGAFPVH

The assay concerns the target full-length (FL) BRAF^WT, 6x-HIS-BRAF-WT/FLAG (human) (UniProt P15056). Description: co-immunoprecipitation of V5-tagged BRAF with FLAG-tagged BRAF, with or without 50 µM braftide.

These are yes or no findings as the source states them, for the method shown. In cells and extracts the contact can be indirect. Some binding calls cover weakened binding; strength is not graded here.

B1: braftide (peptide)
peptide: TRHVNILLFM
Regarding B1, the binding entry is on record as “binds”.
